Experimental data: patent US20100267803A1, “Regulators Of Fat Metabolism As Anti-Cancer Targets” (The Research Foundation of State University Of New York, priority 2008, published 2010)
Some results were stated once for a whole list of compounds, not compound by compound.

Tested on: BT474 cells
Experiment: Apoptosis by cleaved Caspase-3 or activated Bax immunofluorescence
Format: cell-based, human
Details: Caspase-3 or Bax activation, 48 h after shRNA transfection
Experimental: Results are shown as percentage of control. (**P=0.03). (c) BT474 cells were transfected with luciferase (control), PBP and NR1D1 shRNAs and co-transfected with GFP. Green cells were counted at intervals and expressed as percentage of control. (Error bars are s.d from 3 individual experiments; *P<0.08, **P<0.03, ***P<0.005). (d) BT474 cells were transfected with luciferase (control), PBP or NR shRNAs for 48 h. Immunofluorescence was performed for cleaved Caspase-3 signal; cell nuclei were stained with Hoechst 33243. (e) Cells from […] were counted for cleaved Caspase-3 signal. (Error bars are s.d from 3 individual experiments; ***P<0.0003). […] Transfected cells were counted at 24 h and 72 h and the 72 h-to-24 h ratio for each shRNA was calculated and expressed as % of the control shRNA (luciferase). […] (g) Cells from (f) were counted for cleaved Caspase-3 signal. […] (h) ERBB2 mRNA levels of BT474 cells transfected with luciferase (control), PBP or NR1D1 shRNAs for 48 h, analyzed by qRT-PCRs. […]
FIG. 3 PPAR. inhibition impacts NR1D1 expression and ERBB2-positive cells viability. […] (c) Quantification of Caspase-3 signal. […] (d) aP2 and NR1D1 mRNA levels of BT474 cells treated with vehicle (control) and 20 μM of GW9662 for 48 h, analyzed by qRT-PCRs. […]
FIG. 5. (a) MDH1 and ME1 mRNA levels of BT474 cells treated with luciferase (control), PBP or NR1D1 shRNAs for 48 h, analyzed by qRT-PCRs. […]

## NR1D1 shRNA: shRNA, mature sequence GGCATGGTGTTACTGTGTA (shRNA)
  increase in apoptosis: 2.5 to 3 fold

## PBP shRNA: shRNA, mature sequence CCGAGTTCCTCTTATCCTA (shRNA)
  increase in apoptosis: 2.5 to 3 fold
